According to the supplement of paper PMC10849652:
The list shows a part of the results.

Sequences of proteins named here, by UniProt entry; tags and fusion partners are left off. A change or cut given only in a name is not applied to a line headed by its entry.
UniProt P42575: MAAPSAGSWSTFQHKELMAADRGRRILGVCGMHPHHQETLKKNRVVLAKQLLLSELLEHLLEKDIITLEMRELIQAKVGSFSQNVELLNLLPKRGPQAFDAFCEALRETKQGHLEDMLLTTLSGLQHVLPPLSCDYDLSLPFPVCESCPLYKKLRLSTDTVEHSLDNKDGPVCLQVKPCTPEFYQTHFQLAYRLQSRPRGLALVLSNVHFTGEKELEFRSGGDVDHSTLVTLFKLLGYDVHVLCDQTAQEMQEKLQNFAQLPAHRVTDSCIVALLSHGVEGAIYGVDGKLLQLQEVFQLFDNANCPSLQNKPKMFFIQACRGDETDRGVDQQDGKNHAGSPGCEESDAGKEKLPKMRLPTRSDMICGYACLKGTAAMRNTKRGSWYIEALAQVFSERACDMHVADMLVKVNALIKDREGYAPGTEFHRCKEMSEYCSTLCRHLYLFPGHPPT
UniProt Q6P4E1: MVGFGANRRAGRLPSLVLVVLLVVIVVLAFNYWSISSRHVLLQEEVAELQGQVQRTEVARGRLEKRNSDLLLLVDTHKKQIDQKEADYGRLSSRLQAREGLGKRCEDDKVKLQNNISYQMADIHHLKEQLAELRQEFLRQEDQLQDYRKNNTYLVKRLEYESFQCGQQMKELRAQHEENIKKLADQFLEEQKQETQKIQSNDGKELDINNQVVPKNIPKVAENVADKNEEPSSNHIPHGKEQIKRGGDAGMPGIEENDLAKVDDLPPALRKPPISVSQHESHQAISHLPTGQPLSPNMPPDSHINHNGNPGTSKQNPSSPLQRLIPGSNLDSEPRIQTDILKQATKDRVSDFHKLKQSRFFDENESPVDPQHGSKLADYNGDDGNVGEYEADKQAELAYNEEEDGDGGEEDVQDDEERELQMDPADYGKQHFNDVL
UniProt Q9P031: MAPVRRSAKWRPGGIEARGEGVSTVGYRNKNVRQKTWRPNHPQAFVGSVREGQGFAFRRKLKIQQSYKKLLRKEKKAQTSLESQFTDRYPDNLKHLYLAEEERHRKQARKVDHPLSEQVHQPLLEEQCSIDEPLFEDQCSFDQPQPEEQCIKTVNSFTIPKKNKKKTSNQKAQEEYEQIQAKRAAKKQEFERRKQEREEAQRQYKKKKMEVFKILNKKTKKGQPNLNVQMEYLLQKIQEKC
UniProt P19397: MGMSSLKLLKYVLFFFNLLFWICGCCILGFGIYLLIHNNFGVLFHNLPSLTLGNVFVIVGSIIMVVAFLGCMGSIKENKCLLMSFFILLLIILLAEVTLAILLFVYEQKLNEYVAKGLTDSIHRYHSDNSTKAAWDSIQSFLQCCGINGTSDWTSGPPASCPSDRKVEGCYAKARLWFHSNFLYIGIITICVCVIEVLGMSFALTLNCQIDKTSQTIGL
UniProt P48509: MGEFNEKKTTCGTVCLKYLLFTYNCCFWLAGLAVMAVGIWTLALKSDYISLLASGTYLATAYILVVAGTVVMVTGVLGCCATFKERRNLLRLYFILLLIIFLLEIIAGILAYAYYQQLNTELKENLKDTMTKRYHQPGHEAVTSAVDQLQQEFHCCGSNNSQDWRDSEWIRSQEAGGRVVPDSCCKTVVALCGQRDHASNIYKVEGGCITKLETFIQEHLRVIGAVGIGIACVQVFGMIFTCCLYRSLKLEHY
UniProt Q4G0I0: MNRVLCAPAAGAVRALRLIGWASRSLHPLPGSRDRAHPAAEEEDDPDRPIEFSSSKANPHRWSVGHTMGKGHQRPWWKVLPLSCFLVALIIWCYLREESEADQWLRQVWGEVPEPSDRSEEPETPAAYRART
UniProt P51946: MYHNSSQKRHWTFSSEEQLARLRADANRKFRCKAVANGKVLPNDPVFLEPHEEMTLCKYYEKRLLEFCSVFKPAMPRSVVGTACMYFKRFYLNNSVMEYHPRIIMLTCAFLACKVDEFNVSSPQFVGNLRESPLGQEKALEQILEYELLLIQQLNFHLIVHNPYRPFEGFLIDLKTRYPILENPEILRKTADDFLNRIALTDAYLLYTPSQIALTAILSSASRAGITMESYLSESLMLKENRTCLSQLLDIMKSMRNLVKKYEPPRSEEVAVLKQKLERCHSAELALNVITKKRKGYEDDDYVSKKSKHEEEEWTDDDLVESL
UniProt P14209: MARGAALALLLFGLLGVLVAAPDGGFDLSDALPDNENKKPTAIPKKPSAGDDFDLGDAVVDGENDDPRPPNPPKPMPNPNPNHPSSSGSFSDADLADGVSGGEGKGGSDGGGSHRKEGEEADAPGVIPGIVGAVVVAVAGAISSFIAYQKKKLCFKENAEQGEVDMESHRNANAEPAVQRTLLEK
UniProt O75909: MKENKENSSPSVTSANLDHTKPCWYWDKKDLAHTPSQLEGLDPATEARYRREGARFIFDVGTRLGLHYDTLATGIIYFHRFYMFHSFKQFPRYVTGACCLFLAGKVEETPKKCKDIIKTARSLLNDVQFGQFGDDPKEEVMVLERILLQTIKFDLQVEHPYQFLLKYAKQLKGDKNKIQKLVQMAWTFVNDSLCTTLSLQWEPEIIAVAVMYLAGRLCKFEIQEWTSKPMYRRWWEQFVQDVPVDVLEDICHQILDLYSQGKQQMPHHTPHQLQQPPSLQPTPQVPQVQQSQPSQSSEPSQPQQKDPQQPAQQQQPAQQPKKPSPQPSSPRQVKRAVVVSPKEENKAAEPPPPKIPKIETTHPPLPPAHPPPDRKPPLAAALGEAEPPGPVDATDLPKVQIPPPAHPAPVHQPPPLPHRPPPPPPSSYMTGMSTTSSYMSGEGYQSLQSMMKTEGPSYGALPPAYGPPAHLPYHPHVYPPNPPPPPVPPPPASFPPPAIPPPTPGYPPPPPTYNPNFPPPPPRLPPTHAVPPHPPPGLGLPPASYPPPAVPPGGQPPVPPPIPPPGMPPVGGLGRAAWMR
UniProt P16152: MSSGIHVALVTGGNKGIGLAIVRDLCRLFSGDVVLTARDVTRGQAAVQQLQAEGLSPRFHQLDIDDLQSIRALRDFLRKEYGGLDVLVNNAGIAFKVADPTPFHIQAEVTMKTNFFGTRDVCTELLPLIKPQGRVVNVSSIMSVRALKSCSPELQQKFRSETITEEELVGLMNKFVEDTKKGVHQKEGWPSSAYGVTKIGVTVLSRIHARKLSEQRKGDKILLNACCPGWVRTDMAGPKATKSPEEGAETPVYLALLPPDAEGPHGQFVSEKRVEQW
UniProt P45973, whole entry, looked up: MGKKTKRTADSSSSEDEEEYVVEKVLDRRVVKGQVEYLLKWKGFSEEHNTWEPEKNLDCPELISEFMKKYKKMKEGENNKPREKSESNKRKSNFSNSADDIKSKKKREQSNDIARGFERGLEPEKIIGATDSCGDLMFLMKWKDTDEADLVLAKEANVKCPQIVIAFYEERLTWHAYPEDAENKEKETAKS
UniProt Q8NHZ8, whole entry, looked up: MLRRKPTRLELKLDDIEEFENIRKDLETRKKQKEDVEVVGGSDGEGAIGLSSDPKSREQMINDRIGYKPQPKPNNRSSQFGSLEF
UniProt Q8N4T8: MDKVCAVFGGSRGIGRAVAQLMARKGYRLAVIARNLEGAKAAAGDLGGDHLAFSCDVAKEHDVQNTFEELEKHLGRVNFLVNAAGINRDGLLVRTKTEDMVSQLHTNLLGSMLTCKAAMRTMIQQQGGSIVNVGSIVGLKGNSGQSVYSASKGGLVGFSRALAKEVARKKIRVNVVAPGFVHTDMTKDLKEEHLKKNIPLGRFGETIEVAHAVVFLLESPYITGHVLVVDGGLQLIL
UniProt A6NHX0: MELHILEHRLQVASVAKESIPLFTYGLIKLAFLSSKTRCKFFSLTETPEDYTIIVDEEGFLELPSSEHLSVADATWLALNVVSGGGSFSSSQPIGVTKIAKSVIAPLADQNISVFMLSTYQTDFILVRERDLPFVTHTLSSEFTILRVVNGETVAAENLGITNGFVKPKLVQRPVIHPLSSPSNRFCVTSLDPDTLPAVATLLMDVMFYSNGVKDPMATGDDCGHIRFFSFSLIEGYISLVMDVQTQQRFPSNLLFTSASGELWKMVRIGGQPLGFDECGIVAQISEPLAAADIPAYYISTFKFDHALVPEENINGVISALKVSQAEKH
UniProt Q8IWY9: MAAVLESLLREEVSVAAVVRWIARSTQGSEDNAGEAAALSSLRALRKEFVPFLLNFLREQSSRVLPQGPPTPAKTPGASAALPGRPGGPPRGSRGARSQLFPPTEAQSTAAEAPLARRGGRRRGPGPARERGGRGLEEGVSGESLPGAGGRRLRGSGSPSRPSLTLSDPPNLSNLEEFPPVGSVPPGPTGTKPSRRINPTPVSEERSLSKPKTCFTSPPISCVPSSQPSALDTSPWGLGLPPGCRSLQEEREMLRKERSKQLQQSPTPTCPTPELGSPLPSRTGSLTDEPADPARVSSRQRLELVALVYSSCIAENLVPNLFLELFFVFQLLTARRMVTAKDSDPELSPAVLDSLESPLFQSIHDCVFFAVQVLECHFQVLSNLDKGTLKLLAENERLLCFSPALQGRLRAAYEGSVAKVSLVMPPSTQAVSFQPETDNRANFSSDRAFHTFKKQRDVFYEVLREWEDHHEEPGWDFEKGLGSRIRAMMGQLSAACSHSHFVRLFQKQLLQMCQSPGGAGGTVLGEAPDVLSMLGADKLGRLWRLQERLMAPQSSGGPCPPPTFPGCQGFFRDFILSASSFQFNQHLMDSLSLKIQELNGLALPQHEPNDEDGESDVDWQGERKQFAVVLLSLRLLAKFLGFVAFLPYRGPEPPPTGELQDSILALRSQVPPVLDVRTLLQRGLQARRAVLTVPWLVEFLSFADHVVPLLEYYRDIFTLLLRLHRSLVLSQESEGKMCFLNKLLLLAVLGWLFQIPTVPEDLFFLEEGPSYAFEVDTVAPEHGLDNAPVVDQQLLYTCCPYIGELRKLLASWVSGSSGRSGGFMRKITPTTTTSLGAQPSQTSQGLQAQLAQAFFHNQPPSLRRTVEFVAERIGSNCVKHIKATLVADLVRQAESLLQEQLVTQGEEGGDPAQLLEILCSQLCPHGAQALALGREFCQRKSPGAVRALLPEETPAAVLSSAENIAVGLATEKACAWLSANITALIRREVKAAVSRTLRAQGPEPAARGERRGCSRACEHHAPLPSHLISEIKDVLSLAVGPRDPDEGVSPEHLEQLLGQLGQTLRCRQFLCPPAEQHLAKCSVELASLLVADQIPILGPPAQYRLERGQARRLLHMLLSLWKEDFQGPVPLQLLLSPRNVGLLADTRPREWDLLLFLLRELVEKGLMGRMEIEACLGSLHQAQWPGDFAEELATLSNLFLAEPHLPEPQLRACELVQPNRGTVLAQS
UniProt Q6NZI2: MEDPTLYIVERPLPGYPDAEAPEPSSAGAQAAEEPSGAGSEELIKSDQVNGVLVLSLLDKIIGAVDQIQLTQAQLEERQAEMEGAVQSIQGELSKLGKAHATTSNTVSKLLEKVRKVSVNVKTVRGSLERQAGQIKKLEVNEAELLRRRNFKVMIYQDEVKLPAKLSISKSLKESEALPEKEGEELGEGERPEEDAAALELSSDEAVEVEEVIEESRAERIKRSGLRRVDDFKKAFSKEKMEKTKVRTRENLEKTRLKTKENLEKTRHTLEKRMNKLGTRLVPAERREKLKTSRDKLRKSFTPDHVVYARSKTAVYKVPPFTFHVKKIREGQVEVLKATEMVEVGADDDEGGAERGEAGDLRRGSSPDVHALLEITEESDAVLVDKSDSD
UniProt A6NKD9: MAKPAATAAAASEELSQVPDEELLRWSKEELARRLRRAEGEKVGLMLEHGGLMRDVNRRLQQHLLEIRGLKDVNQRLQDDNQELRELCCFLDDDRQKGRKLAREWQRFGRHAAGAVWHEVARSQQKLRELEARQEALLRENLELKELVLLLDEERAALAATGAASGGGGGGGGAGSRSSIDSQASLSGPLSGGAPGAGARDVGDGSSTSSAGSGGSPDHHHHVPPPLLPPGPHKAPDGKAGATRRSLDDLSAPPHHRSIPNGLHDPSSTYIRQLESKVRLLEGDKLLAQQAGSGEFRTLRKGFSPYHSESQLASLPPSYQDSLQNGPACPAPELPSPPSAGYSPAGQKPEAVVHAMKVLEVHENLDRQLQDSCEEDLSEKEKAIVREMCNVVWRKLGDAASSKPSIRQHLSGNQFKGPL

Columns and labels:
Assay in all cases: log2 fold change, soluble protein after heating vs DMSO (PISA); higher = thermal stabilisation; K562 cells, 10 uM, 30 min; active = over 0.2 and 3.5 SD of the protein, either way, in both replicates (recomputed)
[1] = compound: CC[C@@H]1C(=O)N(C)c2cnc(Nc3ccc(C(=O)NC4CCN(C)CC4)cc3OC)nc2N1C1CCCC1
In short: (§1)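 K562 cells at 2×10^6 cells/mL were treated with 10 μM compound for 30 min. Aliquots were heated for 3 min across 48°C-58°C, pooled, and extracted in PBS with 0.5% NP-40 at 4°C; soluble protein was the supernatant after 21,000xg for 90 min. Soluble protein was quantified by TMTpro 16plex LC-MS/MS with channel sums equalised, and reported as log2 fold change in thermal stability against DMSO controls, with values from duplicates.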

volasertib = compound: CC[C@@H]1C(=O)N(C)c2cnc(Nc3ccc(C(=O)N[C@H]4CC[C@H](N5CCN(CC6CC6)CC5)CC4)cc3OC)nc2N1C(C)C [volasertib]
In short: as §1

[2] = compound: CC[C@H](C)N1C=C(C2=C(C=C(C=C21)C3=CN=C(C=C3)N4CCNCC4)C(=O)NCC5=C(C=C(NC5=O)C)C)C
In short: as §1

epoxomicin = compound: CC[C@H](C)[C@@H](C(=O)N[C@@H]([C@@H](C)O)C(=O)N[C@@H](CC(C)C)C(=O)[C@]1(CO1)C)NC(=O)[C@H]([C@@H](C)CC)N(C)C(=O)C [epoxomicin]
In short: as §1

[3] = compound: CCn1cc(-c2ccnc3[nH]c(-c4cccc(CN(C)C)c4)cc23)c(-c2ccc(NC(=O)N(C)C)cc2)n1
In short: as §1

[4] = compound: CN(C)CC(=O)Nc1ccc2[nH]c(=O)c3ccccc3c2c1
In short: as §1

[5] = compound: CN1C2=C(C3=C1C(=O)N(N=C3)CC4=CC(=CC=C4)N)SC(=C2)S(=O)C
In short: as §1

[6] = compound: CN1CCC(CNc2ccc3ncc(-c4cccc(OC(F)(F)F)c4)n3n2)CC1
In short: as §1

saracatinib = compound: CN1CCN(CCOc2cc(OC3CCOCC3)c3c(Nc4c(Cl)ccc5c4OCO5)ncnc3c2)CC1 [saracatinib]
In short: as §1

sotrastaurin = compound: CN1CCN(c2nc(C3=C(c4c[nH]c5ccccc45)C(=O)NC3=O)c3ccccc3n2)CC1 [sotrastaurin]
In short: as §1

Tubastatin A = compound: CN1CCc2c(c3ccccc3n2Cc2ccc(C(=O)NO)cc2)C1 [Tubastatin A]
In short: as §1

[7] = compound: CNC(=O)C1=CC=CC=C1NC2=NC(=NC=C2Cl)NC3=C(C=C(C=C3)N4CCOCC4)OC
In short: as §1

defactinib = compound: CNC(=O)c1ccc(Nc2ncc(C(F)(F)F)c(NCc3nccnc3N(C)S(C)(=O)=O)n2)cc1 [defactinib]
In short: as §1

rucaparib = compound: CNCc1ccc(-c2[nH]c3cc(F)cc4c3c2CCNC4=O)cc1 [rucaparib]
In short: as §1

[8] = compound: CNc1nc(-c2ccc3c(N)n[nH]c3c2)cc(N2C[C@@H](C(=O)NC3CCCCC3)CC[C@H]2C)n1
In short: as §1

encorafenib = compound: COC(=O)N[C@@H](C)CNc1nccc(-c2cn(C(C)C)nc2-c2cc(Cl)cc(NS(C)(=O)=O)c2F)n1 [encorafenib]
In short: as §1

[9] = compound: COC(=O)[C@H](CCSC)NC(=O)C1=C(C=C(C=C1)NC[C@H](CS)N)C2=CC=CC=C2
In short: as §1

[10] = compound: CCn1c(C(=O)N(C2CC2)C2CC2)cc2c3c(ncn3C)c(Nc3cc(C)n(C)n3)nc21
In short: as §1

rosiglitazone = compound: CN(CCOC1=CC=C(C=C1)C[C@H]2C(=O)NC(=O)S2)C3=CC=CC=N3 (racemic) [rosiglitazone]
In short: as §1

alvocidib = compound: CN1CC[C@H](c2c(O)cc(O)c3c(=O)cc(-c4ccccc4Cl)oc23)[C@H](O)C1 [alvocidib]
In short: as §1

Measured: log2 fold change

CASP2 (UniProt P42575)
inactive: [1] 0.058 | volasertib 0.112 | [2] 0.078 | epoxomicin 0.024 | [3] -0.153 | [4] 0.031 | [5] 0.008 | [6] -0.08 | saracatinib -0.1 | sotrastaurin -0.048 | Tubastatin A 0.082 | [7] 0.037 | defactinib -0.08 | rucaparib -0.006 | [8] 0.053 | encorafenib 0.133 | [9] -0.005

CASC4 (UniProt Q6P4E1)
inactive: [1] 0.094 | volasertib 0.027 | [2] -0.042 | epoxomicin -0.029 | [10] -0.021 | [3] 0.051 | [4] -0.045 | rosiglitazone 0.001 | [5] -0.019 | [6] 0.054 | saracatinib 0.006 | sotrastaurin 0.047 | alvocidib 0 | Tubastatin A -0.067 | [7] 0.051 | defactinib -0.017 | rucaparib -0.049 | [8] -0.041 | encorafenib 0.027 | [9] 0.013

CCDC59 (UniProt Q9P031)
inactive: [1] 0.065 | volasertib 0.186 | [2] -0.006 | epoxomicin -0.067 | [3] 0.088 | [4] -0.08 | [5] 0.394 | [6] 0.176 | saracatinib -0.222 | sotrastaurin 0.023 | Tubastatin A 0.127 | [7] 0.007 | defactinib 0.309 | rucaparib 0.029 | [8] 0.05 | encorafenib 0.026 | [9] -0.015

CD53 (UniProt P19397)
inactive: [1] 0.183 | volasertib -0.103 | [2] -0.049 | epoxomicin -0.02 | [3] -0.092 | [4] -0.007 | [5] -0.051 | [6] -0.06 | saracatinib -0.22 | sotrastaurin 0.087 | Tubastatin A 0.009 | [7] -0.21 | defactinib -0.069 | rucaparib -0.032 | [8] 0.125 | encorafenib -0.006 | [9] 0.051

CD151 (UniProt P48509)
inactive: volasertib 0.157 | [2] -0.068 | epoxomicin 0.041 | [3] -0.058 | [4] 0 | [5] -0.095 | [6] 0.248 | saracatinib 0.045 | sotrastaurin 0.116 | Tubastatin A -0.012 | [7] 0.092 | defactinib -0.065 | rucaparib -0.097 | [8] 0.03 | encorafenib 0.031 | [9] 0.001
active: [1] 0.277

CCSMST1 (UniProt Q4G0I0)
inactive: [1] 0.024 | volasertib 0.024 | [2] -0.022 | epoxomicin -0.048 | [10] 0.076 | [4] 0.03 | rosiglitazone 0.001 | [5] -0.072 | saracatinib 0.079 | sotrastaurin 0.007 | alvocidib -0.002 | Tubastatin A 0.074 | [7] 0.011 | defactinib 0 | rucaparib 0.054 | [8] -0.064 | encorafenib -0.056 | [9] 0.027

2 neighbouring records already listed:
CD53 (UniProt P19397)
inactive: [1] 0.183 | volasertib -0.103 | [2] -0.049 | epoxomicin -0.02 | [3] -0.092 | [4] -0.007 | [5] -0.051 | [6] -0.06 | saracatinib -0.22 | sotrastaurin 0.087 | Tubastatin A 0.009 | [7] -0.21 | defactinib -0.069 | rucaparib -0.032 | [8] 0.125 | encorafenib -0.006 | [9] 0.051

CD151 (UniProt P48509)
inactive: volasertib 0.157 | [2] -0.068 | epoxomicin 0.041 | [3] -0.058 | [4] 0 | [5] -0.095 | [6] 0.248 | saracatinib 0.045 | sotrastaurin 0.116 | Tubastatin A -0.012 | [7] 0.092 | defactinib -0.065 | rucaparib -0.097 | [8] 0.03 | encorafenib 0.031 | [9] 0.001
active: [1] 0.277

Next part:

CCNH (UniProt P51946)
inactive: [1] -0.034 | volasertib -0.028 | [2] 0.021 | epoxomicin -0.024 | [3] 0.046 | [4] -0.019 | [5] -0.069 | [6] 0.005 | saracatinib 0.094 | sotrastaurin -0.019 | Tubastatin A -0.001 | [7] -0.037 | defactinib -0.037 | rucaparib 0.036 | [8] -0.044 | encorafenib -0.031 | [9] 0.033

CD99 (UniProt P14209)
inactive: [1] 0.148 | volasertib 0.129 | [2] -0.062 | epoxomicin -0.073 | [10] 0.034 | [3] 0.133 | [4] -0.098 | rosiglitazone 0.049 | [6] 0.106 | sotrastaurin 0.064 | alvocidib 0.018 | Tubastatin A 0.112 | [7] -0.01 | defactinib 0.052 | rucaparib -0.068 | encorafenib -0.071 | [9] 0.084

CCNK isoform 4 (UniProt O75909)
inactive: [1] 0.099 | volasertib 0.045 | [2] -0.018 | epoxomicin -0.254 | [3] 0.129 | [4] -0.051 | [5] 0.105 | [6] 0.032 | saracatinib -0.072 | sotrastaurin 0.135 | Tubastatin A 0.057 | [7] -0.147 | defactinib 0.043 | rucaparib 0.066 | [8] -0.019 | encorafenib 0.029 | [9] 0.003

CBR1 (UniProt P16152)
inactive: [1] -0.001 | volasertib -0.041 | [2] -0.017 | epoxomicin 0.06 | [3] 0 | [4] 0.005 | [5] -0.077 | [6] 0.077 | saracatinib 0.02 | sotrastaurin -0.005 | Tubastatin A -0.059 | [7] 0.011 | defactinib -0.041 | rucaparib -0.01 | [8] -0.003 | encorafenib -0.024 | [9] 0.004

CBX5 (UniProt P45973)
inactive: [1] -0.033 | volasertib -0.128 | [2] 0.048 | epoxomicin -0.022 | [3] -0.057 | [4] -0.034 | [5] -0.121 | [6] -0.003 | saracatinib -0.04 | sotrastaurin -0.001 | Tubastatin A 0.078 | [7] -0.026 | defactinib -0.205 | rucaparib -0.022 | [8] 0.043 | encorafenib 0.009 | [9] -0.012

CDC26 (UniProt Q8NHZ8)
inactive: [1] 0.06 | volasertib 0.037 | [2] -0.068 | epoxomicin -0.031 | [3] 0.003 | [4] 0.158 | [5] 0.107 | [6] 0.131 | saracatinib 0.032 | sotrastaurin -0.022 | Tubastatin A 0 | [7] -0.032 | defactinib -0.11 | rucaparib 0.112 | [8] -0.013 | encorafenib -0.051 | [9] -0.234

CBR4 (UniProt Q8N4T8)
inactive: [1] 0 | volasertib 0.023 | [2] 0.042 | epoxomicin -0.055 | [10] -0.012 | [3] -0.038 | [4] -0.011 | rosiglitazone -0.043 | [5] -0.033 | [6] 0.003 | saracatinib -0.018 | sotrastaurin -0.01 | alvocidib -0.008 | Tubastatin A -0.004 | [7] -0.016 | defactinib 0.011 | rucaparib 0.054 | [8] -0.071 | encorafenib -0.012 | [9] -0.009

CASTOR2 (UniProt A6NHX0)
inactive: [1] 0.025 | volasertib 0.254 | [2] -0.042 | epoxomicin 0.061 | [3] 0.123 | [4] -0.035 | [5] -0.022 | [6] 0.066 | saracatinib 0.042 | sotrastaurin 0.039 | Tubastatin A 0.036 | [7] -0.082 | defactinib -0.092 | rucaparib -0.048 | [8] 0.032 | encorafenib 0.04 | [9] 0

CDAN1 (UniProt Q8IWY9)
inactive: [1] -0.079 | volasertib -0.15 | [2] -0.041 | epoxomicin 0.014 | [3] -0.047 | [4] -0.058 | [5] -0.022 | [6] -0.001 | saracatinib -0.012 | sotrastaurin -0.03 | Tubastatin A 0.009 | [7] -0.029 | defactinib 0.024 | rucaparib 0.085 | [8] -0.006 | encorafenib 0.005 | [9] 0.112

CAVIN1 (UniProt Q6NZI2)
inactive: [1] 0.072 | volasertib 0.182 | [2] -0.007 | epoxomicin -0.125 | [3] 0.085 | [4] -0.06 | [5] 0.124 | [6] -0.074 | saracatinib -0.065 | sotrastaurin -0.053 | Tubastatin A 0.159 | [7] -0.015 | defactinib 0.226 | rucaparib 0.098 | [8] 0.119 | encorafenib 0.122 | [9] 0.034

CCDC85C (UniProt A6NKD9)
inactive: [1] 0.054 | volasertib -0.126 | epoxomicin 0.084 | [3] -0.219 | [4] -0.075 | rosiglitazone -0.021 | [5] 0.135 | [6] -0.035 | saracatinib -0.042 | sotrastaurin -0.418 | alvocidib 0.03 | Tubastatin A 0.061 | defactinib 0.016 | rucaparib 0.016 | [8] -0.158 | encorafenib -0.166 | [9] -0.008
